40 compounds from PubChem BioAssay AID2685 (National Center for Advancing Translational Sciences (NCATS), 2010) can be followed below.

One may read the AC50 as the concentration at which the activity in the assay is half-maximal. Lower therefore signals greater potency.

The assay can be described thus: qHTS Assay for Lipid Storage Modulators in Drosophila S3 Cells.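 As to cell number change: cells counted by Cell Tracker Red CMTPX staining in the red channel.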 As to conditions: BODIPY lipid droplet fluorescence, 18-24 h; for cell number change: measured here: cell count max response, cells fed with added oleic acid. The method in brief: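 Drosophila S3 cells loaded with oleic acid (400 uM, as added) and compounds at several concentrations; lipid droplets imaged by 488-nm laser-scanning cytometry, 500–530 nm intensity and object ratio to cell channel. Percent activity normalized to 20 uM Triacsin C.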
For orientation: Quantitative high-throughput screening tests each substance at several concentrations.

Where [1] appears, read: measured here: lipid fluorescence (Fed channel) AC50, cells fed with added oleic acid.
[2] abbreviates: measured here: cell number channel AC50, cells fed with added oleic acid.

The list shows a part of the results. Further columns of the screen follow, without active or inactive calls. Compounds called inactive in the main read-out are mostly missing here. Potencies come from curve fits of mixed quality, noted in brackets.

Take `CCCn1nc(-c2ccccc2)c2nc3ccccc3nc21`: the cell number change is 13.1%. Besides, the AC50 under setting [1] is 0.411 µM [rising, full curve, poor fit].
For `COc1ccc(N2CCN(C(=O)C(=O)c3cn(CC(=O)N4CCCCCC4)c4ccccc34)CC2)cc1`, the cell number change turned out to be 17.3%.
Still for that read-out and setting: the value for `O=C(CSc1ncccn1)NCc1ccc2c(c1)OCO2` was -3.81%.
Consider `CCn1c(SCc2ccc(C(=O)OC)o2)nc2sc3c(c2c1=O)CCCC3`, for which the cell number change was determined as 10.6%. Besides, the AC50 under setting [1] is 2.31 µM [rising, single point].
On to `Cc1ccc(-c2nc3sc4c(c3c(=O)n2N)CC(C)(C)OC4)cc1`, for which the cell number change was determined as 12%. Besides, under setting [1], the AC50 is 2.06 µM [falling, partial curve].
For the compound `Cc1ccc(NC(=O)CCCN2C(=O)NC(C)(C)C2=O)cc1`, the cell number change is 12.1%. For the same compound, under setting [2], the concentration at half-maximal activity (AC50) was 3.66 µM [falling, single point]. The concentration at half-maximal activity (AC50) under setting [1] was 3.66 µM [falling, single point].
On to `CC(c1nnc(SCC(=O)Nc2ccc3[nH]c(=O)[nH]c3c2)n1Cc1ccccc1)N(C)C` (stereo not drawn), for which the cell number change was -11.5%.
Regarding `CC1CCCN(C(=O)c2cn(-c3ccccc3)nc2-c2cccnc2)C1` (stereo not drawn), the cell number change was -25%. Under setting [2], the AC50 is 0.366 µM [falling, partial curve, poor fit].
Take `O=C(CSc1ccc(-c2ccc(-n3cccn3)cc2)nn1)Nc1ccccc1F`: the cell number change was determined as 5.9%. The half-maximal activity concentration (AC50) under setting [1] was 4.11 µM [falling, single point].
Turning to `COCc1ccc(C(=O)N2CCCC(N(C)CCc3ccc(OC)c(OC)c3)C2)s1` (stereo not drawn), the cell number change is 4.4%.
As for `O=C(O)/C=C/c1ccc(S(=O)(=O)N2CCN(CCN3C(=O)C4C5C=CC(C5)C4C3=O)CC2)cc1` (stereo not drawn), the cell number change is -16.7%. In addition, the AC50 under setting [1] is 0.00461 µM [falling, full curve, poor fit].
`COc1ccc(NC(=O)CNc2ccccc2N2CCCC2=O)cc1S(=O)(=O)N1CCOCC1`: the cell number change was determined as 6.56%. In addition, the AC50 under setting [1] was 4.11 µM [rising, full curve].
In the case of `CCCCC(O)(CCN1CCOCC1)c1ccc(Cl)cc1` (stereo not drawn), the AC50 was 0.13 µM [falling, full curve, poor fit] under setting [2] and 0.58 µM [falling, single point] under setting [1].
Turning to `CCOC(=O)C(C)Sc1nc2c(c(-c3cccs3)c1C#N)CCC2` (stereo not drawn), the cell number change was -20.1%. In addition, under setting [1], the AC50 is 0.116 µM [rising, full curve, poor fit].
Turning to `COC(=O)CCCC(=O)N1CCOCCN(C(=O)CCCC(=O)OC)CCOCC1`, the cell number change is 4.11%. Moreover, the AC50 under setting [1] is 36.6 µM [falling, partial curve, poor fit].
As to `Clc1ccc(-c2nc3ccccc3[nH]2)cn1`, the cell number change is -4.94%. The AC50 under setting [1] is 2.59 µM [falling, single point].
`COc1ccc(-c2cc(C(=O)N3CC(C)CC(C)C3)c3ccccc3n2)cc1OC` (stereo not drawn): the cell number change came to 4.76%. The AC50 under setting [1] is 0.231 µM [rising, full curve, poor fit].
Turning to `CC(C(=O)OCC(=O)N1CCN(c2ccccc2)CC1)N1C(=O)c2ccccc2C1=O` (stereo not drawn), the cell number change was determined as 5.26%. In addition, the half-maximal activity concentration (AC50) under setting [1] is 0.92 µM [falling, full curve, poor fit].
In the case of `CCCN1CCN(C(=O)c2cc(COc3ccc(F)cc3F)on2)CC1`, the half-maximal activity concentration (AC50) under setting [2] was 0.00461 µM [falling, full curve, poor fit].
On to `COc1ccc(S(=O)(=O)Nc2ccccc2N2CCOCC2)cc1OC`, for which the cell number change is -0.0645%. Also, under setting [2], the half-maximal activity concentration (AC50) is 0.92 µM [rising, single point]. Besides, the concentration at half-maximal activity (AC50) under setting [1] was 6.51 µM [falling, single point].
As for `COc1ccc(C2C(C(=O)N3CCN(c4ccccc4F)CC3)c3ccccc3C(=O)N2C)cc1` (stereo not drawn), the half-maximal activity concentration (AC50) under setting [2] was 1.84 µM [rising, partial curve] and the concentration at half-maximal activity (AC50) under setting [1] was 2.06 µM [rising, partial curve].
In the case of `CCSc1nnc(-c2cc3c(s2)-c2ccccc2CC3)o1`, the cell number change was determined as 7.48%.
The same measure, in the same setting: then `Cc1csc(Nc2ccccc2)n1`, with -34.2%.
Regarding `CCN(CC)C(=O)Cn1cnc([N+](=O)[O-])n1`, the cell number change turned out to be 15.3%. Further, the concentration at half-maximal activity (AC50) under setting [1] was 0.651 µM [rising, single point].
For `CC(C)(C)OC(=O)c1c(N)n(CCCN2CCCC2=O)c2nc3ccccc3nc12`, the cell number change amounted to 24.4%. For the same compound, under setting [2], the AC50 is 0.259 µM [rising, full curve]. The AC50 under setting [1] was 0.092 µM [rising, full curve, poor fit].
On to `CC(=O)c1cc(Cc2csc(C(C)=O)c2)cs1`, for which the cell number change came out at 2.86%.
For `Cc1ccc(N2CCN(CCCN3C(=O)C4CCCN4C3=O)CC2)cc1` (stereo not drawn), under setting [1], the AC50 was 0.0058 µM [rising, full curve, poor fit].
Turning to `CN(C)/C=N/c1cnc(C(=O)c2ccc(Cl)cc2)n1C`, the cell number change was 15.4%. The half-maximal activity concentration (AC50) under setting [2] was 2.06 µM [rising, single point].
Turning to `Nc1c(S(=O)(=O)c2ccccc2)cnc2c(-c3ccc(F)cc3)cnn12`, the cell number change is -18.5%.
With `COc1ccc(C)cc1NC(=S)Nc1ccccc1SC`, the cell number change was determined as 17.7%. In addition, the AC50 under setting [1] is 2.59 µM [falling, partial curve].
Turning to `CCOC(=O)c1sc(NC(=O)C(CC)Sc2nnc3c4ccccc4n(C(C)C)c3n2)nc1C` (stereo not drawn), the cell number change is -31.2%. The AC50 under setting [2] was 1.84 µM [falling, partial curve, poor fit]. Under setting [1], the half-maximal activity concentration (AC50) is 0.058 µM [falling, full curve, poor fit].
Take `CCCCN1C(=O)C(NC(C)=O)c2cc(Br)ccc21` (stereo not drawn): the cell number change came to 28.4%.
With `COc1cc(NC(=O)C(c2ccccc2)c2ccccc2)c(C(=O)O)cc1OC`, the cell number change is 17.3%. Under setting [1], the half-maximal activity concentration (AC50) is 29.1 µM [rising, single point].
As for `C=CCn1c(COc2ccc(OC)cc2)nnc1SCn1nnc2ccccc2c1=O`, the cell number change amounted to 47.2%. In addition, the AC50 under setting [2] is 20.6 µM [rising, single point].
`CCOc1ccc(N(CC(=O)OC)S(=O)(=O)c2c(C)noc2C)cc1`: the cell number change was -14.1%.
Take `O=C(Nc1cccc(C(=O)N2CCCc3ccccc32)c1)c1ccccc1`: the cell number change is -39.8%. For the same compound, under setting [2], the AC50 is 16.4 µM [falling, single point].
For the compound `CCOC(=O)N1CCC(NC(=O)CN2C(=O)CSc3ncccc32)CC1`, the cell number change worked out at 11.2%. In addition, the AC50 under setting [1] is 23.1 µM [falling, partial curve].
On to `CCn1nnc(NC(=O)c2ccc(-c3ccccc3[N+](=O)[O-])o2)n1`, for which the cell number change was 95.1%. Moreover, the AC50 under setting [2] is 23.1 µM [rising, single point]. Further, the AC50 under setting [1] is 23.1 µM [rising, partial curve].
As for `CN(C)C(=O)c1ccc(NC(=O)CSc2nnc(-c3ccc4c(c3)OCO4)o2)cc1`, the AC50 under setting [1] is 29.1 µM [rising, single point].
Regarding `NC(=O)c1cc2cc(Cl)ccc2oc1=Nc1cccc(C(F)(F)F)c1`, the cell number change is -32.8%. Under setting [2], the AC50 is 18.4 µM [falling, single point]. Besides, under setting [1], the AC50 was 23.1 µM [falling, single point].
